Data as given in publication PMC9932110.
No constants are given. Whether binding was seen depends on the method and setting. Some results given as binding are weak or reduced against the parent protein; the word gives no strength.

Sequences of proteins named here, by UniProt entry; tags and fusion partners are left off.
UniProt Q9D7M1: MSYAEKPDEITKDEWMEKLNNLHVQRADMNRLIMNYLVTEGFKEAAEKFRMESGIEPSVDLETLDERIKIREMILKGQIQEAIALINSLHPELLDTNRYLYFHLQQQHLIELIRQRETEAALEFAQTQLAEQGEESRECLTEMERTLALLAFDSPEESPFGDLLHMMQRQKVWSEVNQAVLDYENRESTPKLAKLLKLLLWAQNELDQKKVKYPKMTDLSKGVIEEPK
UniProt Q99PV3: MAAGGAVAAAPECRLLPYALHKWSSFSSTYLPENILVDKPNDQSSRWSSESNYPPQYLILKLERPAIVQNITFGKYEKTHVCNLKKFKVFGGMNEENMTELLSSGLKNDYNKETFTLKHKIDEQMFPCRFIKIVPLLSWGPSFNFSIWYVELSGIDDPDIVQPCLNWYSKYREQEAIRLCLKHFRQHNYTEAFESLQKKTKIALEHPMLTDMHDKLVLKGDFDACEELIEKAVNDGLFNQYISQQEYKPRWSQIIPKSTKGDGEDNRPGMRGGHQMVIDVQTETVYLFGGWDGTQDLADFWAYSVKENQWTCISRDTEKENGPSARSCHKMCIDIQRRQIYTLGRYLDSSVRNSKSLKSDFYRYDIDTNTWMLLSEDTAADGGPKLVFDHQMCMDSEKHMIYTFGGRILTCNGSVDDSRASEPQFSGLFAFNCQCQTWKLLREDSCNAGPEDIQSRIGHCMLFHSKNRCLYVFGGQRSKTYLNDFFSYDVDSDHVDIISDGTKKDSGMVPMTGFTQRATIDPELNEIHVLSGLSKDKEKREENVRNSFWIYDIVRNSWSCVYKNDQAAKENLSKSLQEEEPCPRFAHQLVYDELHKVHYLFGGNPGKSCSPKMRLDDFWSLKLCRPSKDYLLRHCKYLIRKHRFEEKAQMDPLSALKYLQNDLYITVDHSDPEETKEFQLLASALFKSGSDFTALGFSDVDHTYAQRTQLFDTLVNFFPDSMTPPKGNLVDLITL

Tests used:
Twa1 (mouse) = Twa1 (mouse) (UniProt Q9D7M1); experiment: SEC; analytical SEC of mixed purified subunits and subcomplexes, shift in elution volume; details in the supporting information; both purified
Maea (mouse) = target: T1, Maea (mouse) (UniProt Q4VC33); experiment: SEC; Tcat complex co-expressed in Hi5 insect cells and co-purified by nickel affinity and SEC; both purified
T1 sequence: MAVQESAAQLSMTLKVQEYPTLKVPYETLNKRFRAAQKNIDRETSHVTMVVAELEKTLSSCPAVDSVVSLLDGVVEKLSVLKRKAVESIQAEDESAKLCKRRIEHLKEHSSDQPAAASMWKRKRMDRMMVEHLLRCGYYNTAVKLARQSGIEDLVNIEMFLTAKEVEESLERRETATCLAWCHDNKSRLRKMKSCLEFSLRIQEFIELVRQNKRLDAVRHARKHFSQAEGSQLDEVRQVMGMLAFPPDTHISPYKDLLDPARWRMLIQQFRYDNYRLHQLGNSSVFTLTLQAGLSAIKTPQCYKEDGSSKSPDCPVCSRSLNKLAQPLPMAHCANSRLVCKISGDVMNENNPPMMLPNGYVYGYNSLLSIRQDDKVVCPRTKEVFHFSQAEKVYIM

Rmnd5a (mouse) = target: T2, Rmnd5a (mouse) (UniProt Q80YQ8); experiment: as above
T2 sequence: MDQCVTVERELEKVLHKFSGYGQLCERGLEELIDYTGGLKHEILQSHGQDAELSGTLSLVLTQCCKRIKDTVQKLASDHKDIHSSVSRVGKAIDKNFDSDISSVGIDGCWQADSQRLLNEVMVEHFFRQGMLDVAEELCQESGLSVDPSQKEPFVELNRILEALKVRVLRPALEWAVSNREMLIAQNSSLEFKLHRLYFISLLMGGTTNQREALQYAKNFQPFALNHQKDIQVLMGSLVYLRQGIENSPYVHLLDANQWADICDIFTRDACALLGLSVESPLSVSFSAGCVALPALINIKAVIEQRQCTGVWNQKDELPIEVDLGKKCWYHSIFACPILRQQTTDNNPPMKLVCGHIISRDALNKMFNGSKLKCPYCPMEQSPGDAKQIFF

binding (Twa1 (mouse))	binding (Maea (mouse))	binding (Rmnd5a (mouse))	Substance
no binding			muskelin (from UniProt Q99PV3 1-735)
	binds	binds	Twa1 (of the Tcat complex) (from UniProt Q9D7M1 1-228)
